Assay results: patent EP2711366A1, “Cationic triphenylamine derivatives activable by visible and Infra Red light for inducing and imaging apoptosis in cancer cells” (Institut Curie, priority 2012, dated 2014)

Columns and labels:
Assay type in all cases: cell-based
HeLa cells = assay: Epifluorescence and confocal imaging of fixed cells treated with TPA (cellular localization); settings: 2 µM for 2 hours, HeLa cells fixed using formaldehyde
living HeLa cells = assay: Epifluorescence imaging of living cells under continuous illumination (re-localization, membrane blebbing); settings: for subcellular localization at early time of observation: 2 µM, 2 hours incubation, excitation filter 450-490 nm, irradiance 1.8 W/cm^2
[1] = tested on: PARP (poly-ADP ribose polymerase) cleavage in HeLa cells; assay: PARP cleavage by Western blot and cell morphology after illumination; settings: 2 µM
Experimental: HeLa cells were plated in 6-well plates (4.10^5 cells/well) and incubated with 2 µM TP2Py for 2h at 37°C. After varying illumination times (up to 90min) at 17 mW.cm^-2 (Mercury lamp (130W; 380-600nm) + excitation filter centered at 452 nm (± 45 nm)), cells were collected by scraping, washed once in ice-cold PBS, treated with lysis buffer (1% Nonidet P-40, 20 mM Tris pH 8.0, 137 mM NaCl, 10% glycerol (v/v)) supplemented with 1 mM phenyl-methylsulfonyl fluoride, 1 mM sodium orthovanadate and anti-protease cocktail (Complete, Boehringer Mannheim, Germany) for 20 min on ice and further centrifuged at 10000g for 10 min. Protein concentrations were determined using the bicinchoninic acid method (micro BCA, Pierce, USA). 40µg of detergent soluble proteins were separated by SDS-PAGE under reducing conditions followed by Western blotting. Membranes were first incubated overnight at 4°C with the rabbit primary polyclonal antibody anti-PARP (Cell Signaling Technology). Membranes were then probed with horseradish peroxidase-labelled anti-rabbit IgG (dilution, 1/2000) (Dakocytomation). Detection was based on a chemiluminescence detection system (GE Healthcare, Orsay, France). The immunodetection of beta-actin (supposed to be constant regarding its concentration, regardless of the experimental condition) was used as an internal loading control.
The cleavage of PARP, a hallmark of apoptosis, was assessed by Western blot using an anti-PARP antibody that recognizes both the entire and cleaved PARP (Fig. 11).

living MCF-7 cells [2] = assay: One-photon confocal fluorescence microscopy, photo-induced nuclear translocation and membrane blebbing
Experimental: One-photon epifluorescence and confocal images were obtained using a SP2 confocal microscope (Leica MicroSystem) equipped with an incubation chamber (37°C, CO2 5%). Excitation and emission filters for epifluorescence were 450-490 nm and 515-700 nm, respectively. A continuous laser line (458 nm) was used for excitation in the confocal mode.
The photo-induced nuclear translocation and membrane blebbing were next assessed using confocal fluorescence microscopy [λexc = 458 nm; emission slit settings: 560-720nm and 530-690nm for TP2Py and TP3Bzim, respectively] under experimental conditions similar to those described in experiment 1 for epifluorescence experiments. The corresponding transmission images illustrating the concomitant membrane blebbing are shown below the confocal fluorescence images. Living MCF7 cells were incubated with 2µM TP3Bzim or TP2Py for 2 hours before observation. As shown in Fig. 5A (TP2Py) and in Fig. 5B (TP3BZim), the results obtained with confocal imaging were similar to those obtained with epifluorescence imaging (experiment 1), with however, some discrepancies in the time courses of event appearance, most likely due to the power of the excitation source which is different between epifluorescence and confocal experiments (see below). […] Based on both criteria (re-localization of the fluorescence signal and the formation of blebs), the deduced fluences were 22 and 40 J/cm^2 for TP2Py and TP3Bzim, respectively. […]
The TP2Py compound at a concentration of 2 µM was first incubated with living MCF-7 cells for 2 hours and then observed with confocal microscope with varying illumination power of the laser source [λ=458 nm; emission slit setting: 560-720 nm]. […] For each condition, the fluorescence intensity in ROIs corresponding to the nucleus was plotted as a function of time (the initial time value, t = 0, represents the first observation) (FIG.7C). Using integration time based on tmax values, light dose values, determined from experiments performed at irradiance of 5.6 or 30 mW/cm^2, were consistent (27.6 and 27 J/cm^2 respectively). These values are in accordance with the above-mentioned value for TP2Py (fluence, 22 J/cm^2 in Fig. 5).
Living MCF-7 cells were treated with varying concentrations of TP2Py for two hours (2µM; 0.2µM and 0.02µM) and observed with a confocal microscope [λexc = 458nm; irradiance 30mW/cm^2, emission slit setting: 560-720nm.] (FIG 8A: 2µM; FIG 8B: 0.2µM; FIGBC: 0.02µM).

living MCF-7 cells [3] = assay: Epifluorescence microscopy of living cells, photo-induced cytoplasm to nucleus re-localization; settings: 2 µM pre-incubated with living MCF-7 cells for 2 h

Which “localization of the TPA compound in fixed cells” value (HeLa cells) does the source give for `C[n+]1ccc(/C=C/c2ccc(N(c3ccccc3)c3ccc(/C=C/c4cc[n+](C)cc4)cc3)cc2)cc1` [TP2Py] here?
The value was “nuclear localization”.

And the “subcellular localization at early time of observation” value (living HeLa cells; living HeLa cells)?
The value was “mainly cytoplasmic”.

What about the “fluorescence signal 15 min after the beginning of irradiation” value (living HeLa cells; cells pre-incubated for 16 hours, continuous illumination, irradiance 1.8W/cm^2) of the same compound?
The value was “photo-induced re-localization”.

What about the “initial localization after 16-hour incubation” value (living HeLa cells; living HeLa cells, before illumination) of the same compound?
Its value is “mitochondrial localization”.

And the “cell morphology after 15 min illumination” value [1]?
The value was “a few cells were detached”.

What about the “cell morphology after 90 min illumination” value [1] of the same compound?
Its value is “all cells displayed morphological alteration”.

And the “cell morphology without light illumination” value ([1]; 2 hour incubation)?
Its value is “normal morphology”.

What about the “maximum of emission in mitochondria” value (living MCF-7 cells [2]; living MCF7 cells, confocal) of the same compound?
Its value is 594 nm.

And the “maximum of emission in nuclei” value (living MCF-7 cells [2]; living MCF7 cells, confocal)?
The value was 624 nm.

Which results are given for `Cn1c(/C=C/c2ccc(N(c3ccc(/C=C/c4n(C)c5ccccc5[n+]4C)cc3)c3ccc(/C=C/c4n(C)c5ccccc5[n+]4C)cc3)cc2)[n+](C)c2ccccc21` [TP3Bzim]?
localization of the TPA compound in fixed cells (HeLa cells): nuclear localization; subcellular localization at early time of observation (living HeLa cells; living HeLa cells): mainly cytoplasmic; emission spectrum, nuclear versus cytoplasmic localization (living MCF-7 cells [2]; data not shown): remained the same

How did the “localization of the neutral TPA derivative” value (living MCF-7 cells [2]; 2 µM, two hours, λexc 458nm, even in early observation) turn out when `C(=C\c1nc2ccccc2[nH]1)/c1ccc(N(c2ccc(/C=C/c3nc4ccccc4[nH]3)cc2)c2ccc(/C=C/c3nc4ccccc4[nH]3)cc2)cc1` [TP3^NBzim, reference compound] was run?
The value was “mainly localized in nuclei”.

And the “membrane blebbing / morphological changes under light illumination” value (living MCF-7 cells [2]; 2 µM, two hours, λexc 458nm, t = 0 to 30 min, data not shown)?
The value was “no membrane blebbing or morphological changes”.

How did the “effect of initial illumination under epifluorescence microscopy” value (living MCF-7 cells [3]) turn out when `Cn1c(/C=C/c2ccc(N(c3ccccc3)c3ccc(/C=C/c4n(C)c5ccccc5[n+]4C)cc3)cc2)[n+](C)c2ccccc21` [Tp2Bzim] was run?
The value was “cytoplasm -> nucleus re-localization”.

Which “effect of initial illumination under epifluorescence microscopy” value (living MCF-7 cells [3]) does the source give for `C[n+]1ccccc1/C=C/c1ccc(N(c2ccccc2)c2ccc(/C=C/c3cccc[n+]3C)cc2)cc1` [Tp2Pyo] here?
Its value is “cytoplasm -> nucleus re-localization”.
